One molecule from paper PMC2878639 can be followed below.

The experiment deals with HsdR subunit of the type I restriction-modification enzyme EcoR124I (UniProt P10486). Description: AUC; sedimentation velocity, HsdR at 4.5 μM in buffer A (10 mM Tris-HCl pH 8.0, 100 mM NaCl, 1 mM Na2EDTA), 10 °C, 40,000 rpm, absorbance at 280 nm, Sedfit c(s) and c(M); also with 100-fold excess of ATP (identical S value); both purified.

No constants are given. Whether binding was seen depends on the method and setting.

B1: HsdR subunit of the type I restriction-modification enzyme EcoR124I (enzyme, UniProt P10486 1-1038)
chain: MTHQTHTIAESNNFIVLDKYIKAEPTGDSYQSESDLERELIQDLRNQGYEFISVKSQSAMLANVREQLQNLNGVVFNDSEWRRFTEQYLDNPSDGILDKTRKIHIDYICDFIFDDERLENIYLIDKKNLMRNKVQIIQQFEQAGSHANRYDVTILVNGLPLVQIELKKRGVAIREAFNQIHRYSKESFNSENSLFKYLQLFVISNGTDTRYFANTTKRDKNSFDFTMNWAKSDNTLIKDLKDFTATCFQKHTLLNVLVNYSVFDSSQTLLVMRPYQIAATERILWKIKSSFTAKNWSKPESGGYIWHTTGSGKTLTSFKAARLATELDFIDKVFFVVDRKDLDYQTMKEYQRFSPDSVNGSENTAGLKRNLDKDDNKIIVTTIQKLNNLMKAESDLPVYNQQVVFIFDECHRSQFGEAQKNLKKKFKRYYQFGFTGTPIFPENALGSETTASVFGRELHSYVITDAIRDEKVLKFKVDYNDVRPQFKSLETETDEKKLSAAENQQAFLHPMRIQEITQYILNNFRQKTHRTFPGSKGFNAMLAVSSVDAAKAYYATFKRLQEEAANKSATYKPLRIATIFSFAANEEQNAIGEISDETFDTSAMDSSAKEFLDAAIREYNSHFKTNFSTDSNGFQNYYRDLAQRVKNQDIDLLIVVGMFLTGFDAPTLNTLFVDKNLRYHGLMQAFSRTNRIYDATKTFGNIVTFRDLERSTIDAITLFGDKNTKNVVLEKSYTEYMEGFTDAATGEAKRGFMTVVSELEQRFPDPTSIESEKEKKDFVKLFGEYLRAENILQNYDEFATLKALQQIDLSDPVAVEKFKAEHYVDDEKFAELQTIRLPADRKIQDYRSAYNDIRDWQRREKEAEKKEKSTTDWDDVVFEVDLLKSQEINLDYILGLIFEHNRQNKGKGEMIEEVKRLIRSSLGNRAKEGLVVDFIQQTNLDDLPDKASIIDAFFTFAQREQQREAEALIKEENLNEDAAKRYIRTSLKREYATENGTELNETLPKLSPLNPQYKTKKQAVFQKIVSFIEKFKGVGGKI
Take B1: the binding result is on record as “no binding (tested: 4.5 μM)”.
